Here are results for one substance from paper doi:10.1101/2025.06.13.659437.

Amino acid sequences for entries named in this document (tags omitted).
UniProt O43597: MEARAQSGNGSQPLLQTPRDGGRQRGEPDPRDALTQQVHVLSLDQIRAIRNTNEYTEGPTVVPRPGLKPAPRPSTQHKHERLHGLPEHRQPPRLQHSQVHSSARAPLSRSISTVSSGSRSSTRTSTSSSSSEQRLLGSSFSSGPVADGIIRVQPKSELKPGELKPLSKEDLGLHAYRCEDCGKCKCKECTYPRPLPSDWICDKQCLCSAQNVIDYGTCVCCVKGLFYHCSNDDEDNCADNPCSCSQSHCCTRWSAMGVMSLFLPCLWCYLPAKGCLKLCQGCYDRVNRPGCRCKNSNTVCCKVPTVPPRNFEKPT

Results are given in words; binding and its absence hold for the method and conditions named. In cells and extracts the contact can be indirect. Some entries that bind do so weakly or less than the wild type.

The assay concerns the target mNG-SPRY2 (full length) (human) (UniProt O43597). The assay can be described thus: FRET or BRET. On the technique in general: BRET reads energy transfer from a luciferase to a nearby fluorophore.

In the case of “mNG-SPRY2 (full length) (from UniProt O43597 1-315)”, the binding entry is recorded as “binds”.
